Test results published in the supplement of paper PMC8728848.
This is one part of the list.

What was measured:
Assay in all cases: glycan array binding signal (z-score within array); higher = stronger binding
Conditions in all cases: glycan notation: IUPAC condensed, linker removed
Fuc(a1-2)Gal = target: Fuc(a1-2)Gal
How it was run: (§1)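 The Consortium for Functional Glycomics database supplied 3228 glycan arrays, of which those lacking an available protein sequence were dropped. The binding signal, a within-array Z-score, was averaged across arrays of the same protein sequence and across linkers. Negative scores can be read as non-binding.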

Fuc(a1-2)Gal(b1-3)GalNAc = target: Fuc(a1-2)Gal(b1-3)GalNAc
How it was run: as §1

[1] = target: Fuc(a1-2)Gal(b1-3)GalNAc(a1-3)[Fuc(a1-2)]Gal(b1-4)Glc
How it was run: as §1

[2] = target: Fuc(a1-2)Gal(b1-3)GalNAc(a1-3)[Fuc(a1-2)]Gal(b1-4)GlcNAc
How it was run: as §1

[3] = target: Fuc(a1-2)Gal(b1-3)GalNAc(b1-3)Gal
How it was run: as §1

[4] = target: Fuc(a1-2)Gal(b1-3)GalNAc(b1-3)Gal(a1-4)Gal(b1-4)Glc
How it was run: as §1

[5] = target: Fuc(a1-2)Gal(b1-3)GalNAc(b1-4)[Neu5Ac(a2-3)]Gal(b1-4)Glc
How it was run: as §1

Fuc(a1-2)Gal(b1-3)GlcNAc = target: Fuc(a1-2)Gal(b1-3)GlcNAc
How it was run: as §1

[6] = target: Fuc(a1-2)Gal(b1-3)GlcNAc(b1-2)Man(a1-3)[Fuc(a1-2)Gal(b1-3)GlcNAc(b1-2)Man(a1-6)]Man(b1-4)GlcNAc(b1-4)GlcNAc
How it was run: as §1

[7] = target: Fuc(a1-2)Gal(b1-3)GlcNAc(b1-2)Man(a1-3)[Fuc(a1-2)Gal(b1-3)GlcNAc(b1-2)Man(a1-6)]Man(b1-4)GlcNAc(b1-4)[Fuc(a1-6)]GlcNAc
How it was run: as §1

[8] = target: Fuc(a1-2)Gal(b1-3)GlcNAc(b1-3)Gal(b1-4)Glc
How it was run: as §1

[9] = target: Fuc(a1-2)Gal(b1-3)GlcNAc(b1-3)GalNAc
How it was run: as §1

[10] = target: Fuc(a1-2)Gal(b1-3)GlcNAc(b1-3)[Fuc(a1-2)Gal(b1-3)GlcNAc(b1-6)]GalNAc
How it was run: as §1

[11] = target: Fuc(a1-2)Gal(b1-3)GlcNAc(b1-3)[Gal(b1-4)GlcNAc(b1-6)]Gal(b1-4)Glc
How it was run: as §1

[12] = target: Fuc(a1-2)Gal(b1-3)GlcNAc(b1-3)[Neu5Ac(a2-6)Gal(b1-4)GlcNAc(b1-6)]Gal(b1-4)Glc
How it was run: as §1

[13] = target: Fuc(a1-2)Gal(b1-3)GlcNAc6S
How it was run: as §1

[14] = target: Fuc(a1-2)Gal(b1-3)[Fuc(a1-4)]GlcNAc
How it was run: as §1

[15] = target: Fuc(a1-2)Gal(b1-3)[Fuc(a1-4)]GlcNAc(b1-2)Man(a1-3)[Fuc(a1-2)Gal(b1-3)[Fuc(a1-4)]GlcNAc(b1-2)Man(a1-3)]Man(b1-4)GlcNAc(b1-4)GlcNAc
How it was run: as §1

[16] = target: Fuc(a1-2)Gal(b1-3)[Fuc(a1-4)]GlcNAc(b1-2)Man(a1-3)[Fuc(a1-2)Gal(b1-3)[Fuc(a1-4)]GlcNAc(b1-2)Man(a1-6)]Man(b1-4)GlcNAc(b1-4)[Fuc(a1-6)]GlcNAc(b1-4)[Fuc(a1-6)]GlcNAc
How it was run: as §1

[17] = target: Fuc(a1-2)Gal(b1-3)[Fuc(a1-4)]GlcNAc(b1-3)[Fuc(a1-3)[Gal(b1-4)]GlcNAc(b1-6)]Gal(b1-4)Glc
How it was run: as §1

[18] = target: Fuc(a1-2)Gal(b1-3)[Fuc(a1-4)]GlcNAc(b1-3)[Gal(b1-4)GlcNAc(b1-6)]Gal(b1-4)Glc
How it was run: as §1

Fuc(a1-2)Gal(b1-4)Glc = target: Fuc(a1-2)Gal(b1-4)Glc
How it was run: as §1

Fuc(a1-2)Gal(b1-4)Glc6S = target: Fuc(a1-2)Gal(b1-4)Glc6S
How it was run: as §1

Fuc(a1-2)Gal(b1-4)GlcNAc = target: Fuc(a1-2)Gal(b1-4)GlcNAc
How it was run: as §1

[19] = target: Fuc(a1-2)Gal(b1-4)GlcNAc(b1-2)Man
How it was run: as §1

[20] = target: Fuc(a1-2)Gal(b1-4)GlcNAc(b1-2)Man(a1-3)[Fuc(a1-2)Gal(b1-4)GlcNAc(b1-2)Man(a1-6)]Man(b1-4)GlcNAc(b1-4)GlcNAc
How it was run: as §1

[21] = target: Fuc(a1-2)Gal(b1-4)GlcNAc(b1-2)Man(a1-3)[Fuc(a1-2)Gal(b1-4)GlcNAc(b1-2)Man(a1-6)]Man(b1-4)GlcNAc(b1-4)[Fuc(a1-6)]GlcNAc
How it was run: as §1

[22] = target: Fuc(a1-2)Gal(b1-4)GlcNAc(b1-2)[Fuc(a1-2)Gal(b1-4)GlcNAc(b1-4)]Man(a1-3)[Fuc(a1-2)Gal(b1-4)GlcNAc(b1-2)Man(a1-6)]Man(b1-4)GlcNAc(b1-4)GlcNAc
How it was run: as §1

[23] = target: Fuc(a1-2)Gal(b1-4)GlcNAc(b1-3)Gal(b1-4)GlcNAc
How it was run: as §1

[24] = target: Fuc(a1-2)Gal(b1-4)GlcNAc(b1-3)Gal(b1-4)GlcNAc(b1-2)Man(a1-3)[Fuc(a1-2)Gal(b1-4)GlcNAc(b1-3)Gal(b1-4)GlcNAc(b1-2)Man(a1-6)]Man(b1-4)GlcNAc(b1-4)GlcNAc
How it was run: as §1

[25] = target: Fuc(a1-2)Gal(b1-4)GlcNAc(b1-3)Gal(b1-4)GlcNAc(b1-3)Gal(b1-4)GlcNAc
How it was run: as §1

[26] = target: Fuc(a1-2)Gal(b1-4)GlcNAc(b1-3)GalNAc
How it was run: as §1

[27] = target: Fuc(a1-2)Gal(b1-4)GlcNAc(b1-3)[Fuc(a1-2)Gal(b1-4)GlcNAc(b1-6)]GalNAc
How it was run: as §1

[28] = target: Fuc(a1-2)Gal(b1-4)GlcNAc(b1-3)[Fuc(a1-3)[Gal(b1-4)]GlcNAc(b1-6)]Gal(b1-4)Glc
How it was run: as §1

[29] = target: Fuc(a1-2)Gal(b1-4)GlcNAc(b1-6)GalNAc
How it was run: as §1

[30] = target: Fuc(a1-2)Gal(b1-4)GlcNAc6S
How it was run: as §1

[31] = target: Fuc(a1-2)Gal(b1-4)[Fuc(a1-3)]GlcNAc
How it was run: as §1

B1: Clec39 (Caenorhabditis elegans) (protein)
chain: MTSFYDNSSSSSKPVPLKTSRAQKIQILIFDNWKLILYGAISTLILVLAIMFSTLFFALPAANCDENSEPTKYYTTNAEITTTITTTNQKTTSTASSHLTTISSSATQIYSESSSSSTSQSTFTQSPPEISTTTIAPSDFSCQHGFTLVNNKCWKLVTSNQARPDADKICNGYGGATLFSIKSEQDNRAMIHFVKGQDIDFLWSGLLCSAGEPISCIWDIENGSTANYSNFADGFPNIVYGNCVYFITSGDEAGQWGNEQCGQVMNFVCELPATFQGKDGCKNNYEKSCYLRFDLNLTVPQAQNFCLEKCANLVSIHSANEVRFIMTIYDFIGEILIGALAPAQDFIYWLDGTPANYNNLKFFYNSTCVHMTVAPGMQNVGKWFTRFCTETGKFLCKRSIKNSCT
- glycan array binding signal (z-score) (Fuc(a1-2)Gal): -0.254
- glycan array binding signal (z-score) (Fuc(a1-2)Gal(b1-3)GalNAc): -0.426
- glycan array binding signal (z-score) [1]: -0.415
- glycan array binding signal (z-score) [2]: 0.145
- glycan array binding signal (z-score) [3]: -1.23
- glycan array binding signal (z-score) [4]: -0.017
- glycan array binding signal (z-score) [5]: -0.371
- glycan array binding signal (z-score) (Fuc(a1-2)Gal(b1-3)GlcNAc): -0.889
- glycan array binding signal (z-score) [6]: 2.06
- glycan array binding signal (z-score) [7]: -0.245
- glycan array binding signal (z-score) [8]: -0.274
- glycan array binding signal (z-score) [9]: 1.86
- glycan array binding signal (z-score) [10]: -0.937
- glycan array binding signal (z-score) [11]: -0.284
- glycan array binding signal (z-score) [12]: -0.38
- glycan array binding signal (z-score) [13]: 0.532
- glycan array binding signal (z-score) [14]: -0.114
- glycan array binding signal (z-score) [15]: 0.733
- glycan array binding signal (z-score) [16]: 0.398
- glycan array binding signal (z-score) [17]: -0.85
- glycan array binding signal (z-score) [18]: 0.204
- glycan array binding signal (z-score) (Fuc(a1-2)Gal(b1-4)Glc): -0.435
- glycan array binding signal (z-score) (Fuc(a1-2)Gal(b1-4)Glc6S): 0.27
- glycan array binding signal (z-score) (Fuc(a1-2)Gal(b1-4)GlcNAc): -0.181
- glycan array binding signal (z-score) [19]: 0.227
- glycan array binding signal (z-score) [20]: 1.4
- glycan array binding signal (z-score) [21]: -0.766
- glycan array binding signal (z-score) [22]: 1.44
- glycan array binding signal (z-score) [23]: -1.48
- glycan array binding signal (z-score) [24]: 0.68
- glycan array binding signal (z-score) [25]: 0.752
- glycan array binding signal (z-score) [26]: -0.783
- glycan array binding signal (z-score) [27]: 0.009
- glycan array binding signal (z-score) [28]: 0.552
- glycan array binding signal (z-score) [29]: 0.715
- glycan array binding signal (z-score) [30]: -0.018
- glycan array binding signal (z-score) [31]: 0.187
